Experimental data from PubChem BioAssay AID2685 (National Center for Advancing Translational Sciences (NCATS), 2010).
The list shows a part of the results. Further columns of the screen follow, without active or inactive calls. The list favours compounds with an active or inconclusive main result. The note in brackets gives the kind of curve behind each potency; many fits are weak.

Experiment: qHTS Assay for Lipid Storage Modulators in Drosophila S3 Cells;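 on cell number change: cells counted by Cell Tracker Red CMTPX staining in the red channel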
Details: BODIPY lipid droplet fluorescence, 18-24 h; for cell number change: measured here: cell count max response, cells fed with added oleic acid
Outline: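 Laser-scanning cytometry quantifies lipid droplet accumulation (500–530 nm total intensity; droplet/cell object ratio) in oleic acid-fed (400 uM added) Drosophila S3 cells treated with a concentration series. 20 uM Triacsin C defined 100% inhibition.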

[1] = measured here: lipid fluorescence (Fed channel) AC50, cells fed with added oleic acid
[2] = measured here: cell number channel AC50, cells fed with added oleic acid

O=S(=O)(Cc1ccccc1)Oc1ccccc1
cell number change: -12.4% | AC50 [1]: 0.58 µM [rising, full curve, poor fit]

CCCN1C(=O)c2ccc(C(=O)Nc3ccc4c(c3)OCO4)cc2C1=O
cell number change: 14.4% | AC50 [1]: 3.66 µM [rising, single point]

O=C(NCCSCc1ccco1)Nc1ccc(Cl)cc1
cell number change: 82.3% | AC50 [2]: 29.1 µM [rising, single point] | AC50 [1]: 23.1 µM [rising, partial curve]

COc1ccccc1NC(=O)CSc1nnc(COc2ccc(Cl)cc2)o1
AC50 [1]: 5.17 µM [falling, single point]

CC1=NOC(=O)/C1=C\c1ccc(-c2cc(Cl)ccc2Cl)o1
cell number change: -4.65%

COc1ccc(-c2csc(N(CCCN(C)C)C(=O)c3ccccc3C)n2)cc1
cell number change: 15.1%

CCN(CC)c1cc(C)c2cc(NC(=O)c3ccc(Br)o3)ccc2n1
cell number change: -17.4% | AC50 [1]: 2.91 µM [falling, full curve]

COC(=O)c1c(NC(=O)CN2CCC3(O)CCCCC3C2c2cc(OC)ccc2OC)sc(C)c1C (centres undefined)
cell number change: 28.7% | AC50 [2]: 2.31 µM [rising, full curve, poor fit] | AC50 [1]: 4.11 µM [rising, full curve]

COc1ccc(NC(=O)Cc2ccsc2)cc1S(=O)(=O)N1CCCCC1
cell number change: 3.62% | AC50 [1]: 2.06 µM [rising, partial curve]

COc1ccccc1OCCC(=O)OCC(=O)NCc1ccc(Cl)cc1
cell number change: -18.5% | AC50 [2]: 4.11 µM [falling, partial curve] | AC50 [1]: 6.51 µM [falling, full curve]

O=C(c1ccc([N+](=O)[O-])o1)N1CCN(c2nc3ccc(F)cc3s2)CC1
cell number change: 100% | AC50 [2]: 4.11 µM [rising, partial curve]

C[C@]12C=CC(=O)C=C1CC[C@@H]1C2C(O)C[C@@]2(C)C1CC[C@]2(O)C(=O)COC(=O)CCC(=O)NC(CC(=O)O)C(=O)O (some centres undefined)
cell number change: -9% | AC50 [1]: 4.61 µM [falling, single point]

Cc1ccccc1CN1CCNC(=O)C1CC(=O)O (centres undefined)
cell number change: -42% | AC50 [2]: 20.6 µM [falling, partial curve, poor fit] | AC50 [1]: 20.6 µM [falling, partial curve]

Cc1ccc(C2=NCCn3c2c2ccccc2[n+]3[O-])cc1
cell number change: 20.1% | AC50 [2]: 0.146 µM [falling, full curve, poor fit] | AC50 [1]: 0.146 µM [falling, full curve, poor fit]

Cc1ccc(C(=O)NC(NC(=S)Nc2ccc(S(N)(=O)=O)cc2)C(Cl)(Cl)Cl)cc1 (centres undefined)
cell number change: 159% | AC50 [2]: 20.6 µM [rising, single point] | AC50 [1]: 29.1 µM [rising, single point]

Cc1ccc(C)c(Cn2nnc3c(=O)[nH]c(C4CCCN(C(=O)C5CCC5)C4)nc32)c1 (centres undefined)
cell number change: -21.4% | AC50 [1]: 0.146 µM [rising, full curve, poor fit]

COCCn1c(SCC(=O)NCc2ccco2)nc2cccnc21
cell number change: 11.4%

COc1ccc(C)cc1-n1nnnc1SCC(=O)c1cc(C)n(Cc2ccco2)c1C
AC50 [2]: 1.84 µM [rising, partial curve] | AC50 [1]: 16.4 µM [rising, partial curve]

CSc1cccc(NC(=O)Cn2cnc(S(=O)(=O)N3CCCC3)c2)c1
cell number change: -8.06% | AC50 [1]: 0.00517 µM [falling, full curve, poor fit]

O=[N+]([O-])c1ccccc1OCC(O)CN1CCN(CC(O)COc2ccccc2[N+](=O)[O-])CC1 (centres undefined)
cell number change: -15.2%

CC(C)Cc1nnc(NC(=O)CCC(=O)N2CCN(c3ccc(Cl)cc3)CC2)s1
cell number change: -2.09%

Cc1cccc(CN2C3=NCCCN3c3ccccc32)c1
cell number change: 16.3%

CCOC(=O)C1CCCN(C(=O)c2cc3c(OC)c(OC)c(OC)cc3[nH]2)C1 (centres undefined)
cell number change: 10.3%

COc1cc(CNCCc2ccc(F)cc2)ccc1OCc1ccc(Cl)nc1
cell number change: -25% | AC50 [1]: 5.8 µM [rising, single point]

CC(=O)N1c2ccc(Cl)cc2C2C=CCC2C1c1cccc2ccccc12 (centres undefined)
cell number change: -20.3%

O=C(COC(=O)c1ccc(Br)o1)NCCNC(=O)COC(=O)c1ccc(Br)o1
cell number change: 23.1% | AC50 [1]: 29.1 µM [rising, single point]

COc1cc2nc(Nc3ccc(F)cc3)nc(N)c2cc1OC
cell number change: 4.17% | AC50 [2]: 6.51 µM [rising, single point]

O=C(CN1C(=O)CCC1=O)c1ccc(-c2ccccc2)cc1
cell number change: -20.9% | AC50 [1]: 0.231 µM [falling, full curve, poor fit]

Cc1cc(OCC(=O)NC(C)c2ccccc2)ccc1[N+](=O)[O-] (centres undefined)
cell number change: 29.2% | AC50 [2]: 0.517 µM [rising, full curve, poor fit]

COC(=O)c1ccc(CSc2nc3ccccc3c(=O)n2-c2cccc(OC)c2)o1
cell number change: 31.6% | AC50 [2]: 23.1 µM [rising, single point] | AC50 [1]: 0.092 µM [rising, full curve]

O=C(CSc1ccsc1[N+](=O)[O-])NCCc1ccc(Cl)cc1
cell number change: -25.5% | AC50 [2]: 2.06 µM [falling, full curve, poor fit] | AC50 [1]: 18.4 µM [falling, partial curve, poor fit]

c1ccc(Nc2nc(Nc3ccccc3)nc(N3CCNCC3)n2)cc1
cell number change: -3.97% | AC50 [1]: 1.84 µM [rising, partial curve]

CCOc1cc(C(=O)Nc2ccccc2N2CCOCC2)ccc1OCC(=O)N1CCCCC1
cell number change: -41% | AC50 [2]: 0.103 µM [falling, full curve] | AC50 [1]: 29.1 µM [falling, partial curve, poor fit]

CCC(C)c1ccc(C(C)NC(=S)NCc2ccc(F)cc2)cc1 (centres undefined)
cell number change: -39.6% | AC50 [2]: 32.6 µM [falling, single point]

CCOC(=O)NC(=O)CSc1ccccn1
cell number change: -15.2% | AC50 [1]: 4.11 µM [falling, single point]

CCOC(=O)c1c(C)nc(-c2ccccc2)nc1NC(C)=O
cell number change: -16.4% | AC50 [1]: 29.1 µM [rising, single point]

CC1=NCCN1S(=O)(=O)c1cccc([N+](=O)[O-])c1
cell number change: -2.19% | AC50 [1]: 0.0058 µM [falling, full curve, poor fit]
